Results on one substance are retold here after patent publication US5017557A, “Treatment of infertility with somatotrophin releasing factor” (Industria Farmaceutica Serono S.p.A., priority 1987, dated 1991).

A short description of the data set: RIA dosage of GRF immunoreactivity in human follicular and seminal fluid.

In the case of “GRF: Somatotrophin releasing factor; measured as immunoreactivity by RIA, binding done with iodine labelled human GRF-44”, the “Immunoreactivity to GRF” value by setting is: (human follicular fluid) 60 pg/mL; (human seminal fluid) 140 pg/mL.
